In PubChem BioAssay AID256 (DTP/NCI, 2004):
The list does not hold the whole screen: its compounds were picked by chemical class. Not every dose and run of a compound is shown. T/C is the treated group as % of the vehicle group. Some doses have a count of surviving animals in place of a T/C: the source files T/C as zero there, which appears to mark a toxic dose or a test without result, not a measured value. Some survivor counts are full or nearly so, which does not show that the dose was tolerated: the source hardly ever lists a survival T/C far under the control, and the zero likely stands for such cases as well. Counts of survivors are from the toxicity check (mostly the fifth day) where no day follows; animals may have died later. Schedules are NCI's codes, read here as Q, the interval in days (D) or hours (H), X, the number of doses. For survival time, this PubChem deposit counts one and a half times the control or more as active, and values a quarter to a half above the control carry no call in these data; other NCI protocols may use other cut-offs. Some T/C values are followed by the survivors on the day toxicity was checked, most often the fifth; where neither a count nor a note follows, no animal had died by that day. Some doses were run more than once; the values are given in rising order. Some molecules as drawn cover several salts, stereoisomers or complexes of the source; a dose is that of the sample tested. Some entries show no survivor count and are marked so; the dose need not have been tolerated.

System: CD2F1 mice, L1210 leukemia ip, survival T/C
Experiment: NCI In Vivo Anticancer Drug Screen. Data for tumor model L1210 Leukemia (intraperitoneal) in CD2F1 (CDF1) mice
Conditions: T/C endpoint: mean survival time, higher T/C = longer survival
In short: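 Each value reflects a quotient of treated over vehicle control outcomes in mice with a transplanted tumor.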

[1] = dose: 75.0 mg/kg/injection, schedule: Q01DX001 (ip), vehicle: saline

Q: With ClCCN(CCCl)c1cccc(CN2CCCCC2)c1.O=[N+]([O-])c1cc([N+](=O)[O-])c(O)c([N+](=O)[O-])c1 as the compound, how does the T/C (dose: 12.5 mg/kg/injection, schedule: Q01DX009 (ip), vehicle: Klucel (hydroxypropylcellulose) (HPC)) read?
A: 105 % of control

Q: What about the T/C (dose: 25.0 mg/kg/injection, schedule: Q01DX009 (ip), vehicle: Klucel (hydroxypropylcellulose) (HPC)) of the same compound?
A: 107 % of control

Q: And the T/C (dose: 50.0 mg/kg/injection, schedule: Q01DX009 (ip), vehicle: Klucel (hydroxypropylcellulose) (HPC))?
A: 107 and 130 % of control

Q: And the T/C (dose: 100.0 mg/kg/injection, schedule: Q01DX009 (ip), vehicle: Klucel (hydroxypropylcellulose) (HPC))?
A: 109 % of control

Q: What about the survivor count (dose: 200.0 mg/kg/injection, schedule: Q01DX009 (ip), vehicle: Klucel (hydroxypropylcellulose) (HPC)) of the same compound?
A: 3 of 3

Q: How did the T/C (dose: 75.0 mg/kg/injection, schedule: Q01DX001 (ip), vehicle: other) turn out when CC(O)CNC1CCCCC1.O=[N+]([O-])c1cc([N+](=O)[O-])c(O)c([N+](=O)[O-])c1 was run?
A: 89 % of control [survivor count not shown]

Q: What about the T/C (dose: 150.0 mg/kg/injection, schedule: Q01DX001 (ip), vehicle: other) of the same compound?
A: 97 % of control [survivor count not shown]

Q: What about the T/C (dose: 300.0 mg/kg/injection, schedule: Q01DX001 (ip), vehicle: other) of the same compound?
A: 96 % of control [survivor count not shown]

Q: What does the source list for CC(C=O)COP(N)(=O)N(CCCl)CCCl (configuration not stated)?
A: T/C (dose: 15.62 mg/kg/injection, schedule: Q01DX001 (ip), vehicle: DMSO): 101 % of control; T/C (dose: 31.3 mg/kg/injection, schedule: Q01DX001 (ip), vehicle: DMSO): 98 % of control; T/C (dose: 62.5 mg/kg/injection, schedule: Q01DX001 (ip), vehicle: DMSO): 103 % of control; T/C (dose: 125.0 mg/kg/injection, schedule: Q01DX001 (ip), vehicle: DMSO): 120 % of control; T/C (dose: 250.0 mg/kg/injection, schedule: Q01DX001 (ip), vehicle: DMSO): 120 % of control; T/C (dose: 500.0 mg/kg/injection, schedule: Q01DX001 (ip), vehicle: DMSO): 119 % of control

Q: How did the T/C [1] turn out when CCN(CC)CCOC(=O)C(O)(c1ccccc1)c1c(C)cccc1C (configuration not stated) was run?
A: 102 and 104 % of control

Q: How did the T/C (dose: 15.63 mg/kg/injection, schedule: Q01DX001 (ip), vehicle: distilled water + Tween-80) turn out when O=P1(N(CCCl)CCCl)NC(c2ccccc2)CCO1 (configuration not stated) was run?
A: 100 and 103 % of control

Q: What about the T/C (dose: 31.3 mg/kg/injection, schedule: Q01DX001 (ip), vehicle: distilled water + Tween-80) of the same compound?
A: 100 and 106 % of control

Q: And the T/C (dose: 62.5 mg/kg/injection, schedule: Q01DX001 (ip), vehicle: distilled water + Tween-80, evaluated on day 30)?
A: 106 and 109 % of control

Q: And the T/C (dose: 62.5 mg/kg/injection, schedule: Q01DX001 (ip), vehicle: distilled water + Tween-80, evaluated on day 45)?
A: 104 % of control

Q: And the T/C (dose: 62.5 mg/kg/injection, schedule: Q01DX001 (ip), vehicle: water)?
A: 105 % of control

Q: And the T/C (dose: 125.0 mg/kg/injection, schedule: Q01DX001 (ip), vehicle: distilled water + Tween-80, evaluated on day 30)?
A: 94 and 124 % of control

Q: And the T/C (dose: 125.0 mg/kg/injection, schedule: Q01DX001 (ip), vehicle: distilled water + Tween-80, evaluated on day 45)?
A: 106 % of control

Q: And the T/C (dose: 125.0 mg/kg/injection, schedule: Q01DX001 (ip), vehicle: water)?
A: 120 % of control

Q: What about the T/C (dose: 250.0 mg/kg/injection, schedule: Q01DX001 (ip), vehicle: distilled water + Tween-80, evaluated on day 30) of the same compound?
A: 105 and 149 % of control [5 of 6 alive]

Q: What about the T/C (dose: 250.0 mg/kg/injection, schedule: Q01DX001 (ip), vehicle: distilled water + Tween-80, evaluated on day 45) of the same compound?
A: 120 % of control

Q: And the T/C (dose: 250.0 mg/kg/injection, schedule: Q01DX001 (ip), vehicle: water)?
A: 122 % of control

Q: And the T/C (dose: 347.0 mg/kg/injection, schedule: Q01DX001 (ip), vehicle: distilled water + Tween-80)?
A: 110 % of control

Q: And the T/C (dose: 417.0 mg/kg/injection, schedule: Q01DX001 (ip), vehicle: distilled water + Tween-80)?
A: 106 % of control

Q: What about the T/C (dose: 500.0 mg/kg/injection, schedule: Q01DX001 (ip), vehicle: distilled water + Tween-80, evaluated on day 30) of the same compound?
A: 108 [5 of 6 alive] and 120 % of control

Q: What about the T/C (dose: 500.0 mg/kg/injection, schedule: Q01DX001 (ip), vehicle: distilled water + Tween-80, evaluated on day 45) of the same compound?
A: 220 % of control [5 of 6 alive]

Q: What about the survivor count (dose: 500.0 mg/kg/injection, schedule: Q01DX001 (ip), vehicle: distilled water + Tween-80) of the same compound?
A: 3 of 6

Q: What about the T/C (dose: 500.0 mg/kg/injection, schedule: Q01DX001 (ip), vehicle: water) of the same compound?
A: 204 % of control [4 of 6 alive]

Q: And the T/C (dose: 600.0 mg/kg/injection, schedule: Q01DX001 (ip), vehicle: distilled water + Tween-80)?
A: 130 % of control [5 of 6 alive]

Q: Which T/C (dose: 21.25 mg/kg/injection, schedule: Q01DX001 (ip), vehicle: DMSO) does the source give for CCOC1CNP(=O)(N(CCCl)CCCl)OC1 (configuration not stated) here?
A: 98 % of control

Q: And the T/C (dose: 21.9 mg/kg/injection, schedule: Q01DX001 (ip), vehicle: DMSO)?
A: 100 % of control

Q: And the T/C (dose: 42.5 mg/kg/injection, schedule: Q01DX001 (ip), vehicle: DMSO)?
A: 100 % of control

Q: And the T/C (dose: 43.8 mg/kg/injection, schedule: Q01DX001 (ip), vehicle: DMSO)?
A: 107 % of control

Q: And the T/C (dose: 85.0 mg/kg/injection, schedule: Q01DX001 (ip), vehicle: DMSO)?
A: 102 % of control

Q: What about the T/C (dose: 87.5 mg/kg/injection, schedule: Q01DX001 (ip), vehicle: DMSO) of the same compound?
A: 112 % of control

Q: What about the T/C (dose: 170.0 mg/kg/injection, schedule: Q01DX001 (ip), vehicle: DMSO) of the same compound?
A: 94 % of control

Q: What about the T/C (dose: 175.0 mg/kg/injection, schedule: Q01DX001 (ip), vehicle: DMSO) of the same compound?
A: 119 % of control

Q: What about the T/C (dose: 340.0 mg/kg/injection, schedule: Q01DX001 (ip), vehicle: DMSO) of the same compound?
A: 102 % of control

Q: And the T/C (dose: 350.0 mg/kg/injection, schedule: Q01DX001 (ip), vehicle: DMSO)?
A: 132 % of control

Q: What about the T/C (dose: 680.0 mg/kg/injection, schedule: Q01DX001 (ip), vehicle: DMSO) of the same compound?
A: 105 % of control

Q: And the T/C (dose: 700.0 mg/kg/injection, schedule: Q01DX001 (ip), vehicle: DMSO)?
A: 144 % of control

Q: Which T/C (dose: 0.5 mg/kg/injection, schedule: Q01DX009 (ip), vehicle: saline with Tween-80) does the source give for N#C/C(=C\c1ccc(N(CCBr)CCBr)cc1)C(N)=O here?
A: 106 % of control

Q: And the T/C (dose: 1.0 mg/kg/injection, schedule: Q01DX009 (ip), vehicle: saline with Tween-80)?
A: 117 % of control

Q: And the T/C (dose: 2.0 mg/kg/injection, schedule: Q01DX009 (ip), vehicle: saline with Tween-80)?
A: 125 % of control

Q: And the T/C (dose: 4.0 mg/kg/injection, schedule: Q01DX009 (ip), vehicle: saline with Tween-80)?
A: 122 % of control

Q: And the T/C (dose: 8.0 mg/kg/injection, schedule: Q01DX009 (ip), vehicle: saline with Tween-80)?
A: 97 % of control

Q: For CC(=O)NCCSC(O)C(Cl)(Cl)Cl (configuration not stated), which T/C (dose: 75.0 mg/kg/injection, schedule: Q04DX003 (ip), vehicle: saline) is on record?
A: 106 % of control

Q: What about the T/C (dose: 150.0 mg/kg/injection, schedule: Q04DX003 (ip), vehicle: saline) of the same compound?
A: 97 % of control

Q: And the T/C (dose: 300.0 mg/kg/injection, schedule: Q04DX003 (ip), vehicle: saline)?
A: 101 % of control

Q: With CN(C)c1ncnc2c1NP(=O)(c1ccccc1)N2 (configuration not stated) as the compound, how does the T/C (dose: 12.5 mg/kg/injection, schedule: Q01DX005 (ip), vehicle: water) read?
A: 96 % of control

Q: What about the T/C (dose: 25.0 mg/kg/injection, schedule: Q01DX005 (ip), vehicle: water) of the same compound?
A: 96 % of control

Q: And the T/C (dose: 50.0 mg/kg/injection, schedule: Q01DX005 (ip), vehicle: water)?
A: 94 % of control

Q: And the T/C (dose: 100.0 mg/kg/injection, schedule: Q01DX005 (ip), vehicle: water)?
A: 97 % of control

Q: What about the T/C (dose: 200.0 mg/kg/injection, schedule: Q01DX005 (ip), vehicle: water) of the same compound?
A: 100 % of control

Q: What does the source list for COC(=O)C1(C)COP(=O)(N2CCCC2)OC1 (configuration not stated)?
A: T/C [1]: 107 % of control; T/C (dose: 150.0 mg/kg/injection, schedule: Q01DX001 (ip), vehicle: saline): 108 % of control; T/C (dose: 300.0 mg/kg/injection, schedule: Q01DX001 (ip), vehicle: saline): 103 % of control

Q: CCCOP(=S)(N=C(N)N)OCCC was tested. Which T/C (dose: 100.0 mg/kg/injection, schedule: Q01DX001 (ip), vehicle: saline) did it give?
A: 100 % of control

Q: And the T/C (dose: 100.0 mg/kg/injection, schedule: Q04DX003 (ip), vehicle: saline)?
A: 102 % of control

Q: What about the T/C (dose: 200.0 mg/kg/injection, schedule: Q01DX001 (ip), vehicle: saline) of the same compound?
A: 97 % of control

Q: What about the T/C (dose: 200.0 mg/kg/injection, schedule: Q04DX003 (ip), vehicle: saline) of the same compound?
A: 100 % of control

Q: What about the T/C (dose: 400.0 mg/kg/injection, schedule: Q01DX001 (ip), vehicle: saline) of the same compound?
A: 100 % of control [5 of 6 alive]

Q: And the T/C (dose: 400.0 mg/kg/injection, schedule: Q04DX003 (ip), vehicle: saline)?
A: 101 % of control [5 of 6 alive]
